According to publication PMC10761734:
Results are given in words; binding and its absence hold for the method and conditions named. Binding seen in cells or lysates may run through a third protein. Here binding means that the protein was enriched with, or labelled near, the bait; the list need not be complete. Each block holds one binder with its values, some of them ahead of it.

The chains behind the UniProt entries cited, without tags or fusion partners.
UniProt Q86T03: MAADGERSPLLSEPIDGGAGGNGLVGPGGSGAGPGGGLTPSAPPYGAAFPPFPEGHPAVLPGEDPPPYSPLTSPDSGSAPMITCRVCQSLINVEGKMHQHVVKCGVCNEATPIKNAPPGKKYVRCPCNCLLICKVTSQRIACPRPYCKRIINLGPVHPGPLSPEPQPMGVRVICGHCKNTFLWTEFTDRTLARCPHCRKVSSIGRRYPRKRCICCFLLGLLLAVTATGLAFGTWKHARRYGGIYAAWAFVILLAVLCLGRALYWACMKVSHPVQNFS

Molecular target: TMEM55B-GFP-WT full length (FL) (human) (UniProt Q86T03)
Experiment: affinity purification with mass spectrometry; U2OS cells infected with adenovirus expressing TMEM55B-WT-GFP or TMEM55B-P66A-GFP, with or without 300 uM NaAsO2 for 2 h; lysates immunoprecipitated with GFP beads, SDS-PAGE, gel bands digested, Orbitrap Fusion Lumos

- binding: binds
B1: CHMP4B (protein, UniProt Q9H444 1-224)
chain: MSVFGKLFGAGGGKAGKGGPTPQEAIQRLRDTEEMLSKKQEFLEKKIEQELTAAKKHGTKNKRAALQALKRKKRYEKQLAQIDGTLSTIEFQREALENANTNTEVLKNMGYAAKAMKAAHDNMDIDKVDELMQDIADQQELAEEISTAISKPVGFGEEFDEDELMAELEELEQEELDKNLLEISGPETVPLPNVPSIALPSKPAKKKEEEDDDMKELENWAGSM

- binding: binds
B2: VPS18 (protein, UniProt Q9P253 1-973)
chain: MASILDEYENSLSRSAVLQPGCPSVGIPHSGYVNAQLEKEVPIFTKQRIDFTPSERITSLVVSSNQLCMSLGKDTLLRIDLGKANEPNHVELGRKDDAKVHKMFLDHTGSHLLIALSSTEVLYVNRNGQKVRPLARWKGQLVESVGWNKALGTESSTGPILVGTAQGHIFEAELSASEGGLFGPAPDLYFRPLYVLNEEGGPAPVCSLEAERGPDGRSFVIATTRQRLFQFIGRAAEGAEAQGFSGLFAAYTDHPPPFREFPSNLGYSELAFYTPKLRSAPRAFAWMMGDGVLYGALDCGRPDSLLSEERVWEYPEGVGPGASPPLAIVLTQFHFLLLLADRVEAVCTLTGQVVLRDHFLEKFGPLKHMVKDSSTGQLWAYTERAVFRYHVQREARDVWRTYLDMNRFDLAKEYCRERPDCLDTVLAREADFCFRQRRYLESARCYALTQSYFEEIALKFLEARQEEALAEFLQRKLASLKPAERTQATLLTTWLTELYLSRLGALQGDPEALTLYRETKECFRTFLSSPRHKEWLFASRASIHELLASHGDTEHMVYFAVIMQDYERVVAYHCQHEAYEEALAVLARHRDPQLFYKFSPILIRHIPRQLVDAWIEMGSRLDARQLIPALVNYSQGGEVQQVSQAIRYMEFCVNVLGETEQAIHNYLLSLYARGRPDSLLAYLEQAGASPHRVHYDLKYALRLCAEHGHHRACVHVYKVLELYEEAVDLALQVDVDLAKQCADLPEEDEELRKKLWLKIARHVVQEEEDVQTAMACLASCPLLKIEDVLPFFPDFVTIDHFKEAICSSLKAYNHHIQELQREMEEATASAQRIRRDLQELRGRYGTVEPQDKCATCDFPLLNRPFYLFLCGHMFHADCLLQAVRPGLPAYKQARLEELQRKLGAAPPPAKGSARAKEAEGGAATAGPSREQLKADLDELVAAECVYCGELMIRSIDRPFIDPQRYEEEQLSWL

- binding: binds
B3: VPS16 (protein, UniProt Q9H269 1-839)
chain: MDCYTANWNPLGDSAFYRKYELYSMDWDLKEELRDCLVAAAPYGGPIALLRNPWRKEKAASVRPVLDIYSASGMPLASLLWKSGPVVSLGWSAEEELLCVQEDGAVLVYGLHGDFRRHFSMGNEVLQNRVLDARIFHTEFGSGVAILTGAHRFTLSANVGDLKLRRMPEVPGLQSAPSCWTVLCQDRVAHILLAVGPDLYLLDHAACSAVTPPGLAPGVSSFLQMAVSFTYRHLALFTDTGYIWMGTASLKEKLCEFNCNIRAPPKQMVWCSRPRSKERAVVVAWERRLMVVGDAPESIQFVLDEDSYLVPELDGVRIFSRSTHEFLHEVPAASEEIFKIASMAPGALLLEAQKEYEKESQKADEYLREIQELGQLTQAVQQCIEAAGHEHQPDMQKSLLRAASFGKCFLDRFPPDSFVHMCQDLRVLNAVRDYHIGIPLTYSQYKQLTIQVLLDRLVLRRLYPLAIQICEYLRLPEVQGVSRILAHWACYKVQQKDVSDEDVARAINQKLGDTPGVSYSDIAARAYGCGRTELAIKLLEYEPRSGEQVPLLLKMKRSKLALSKAIESGDTDLVFTVLLHLKNELNRGDFFMTLRNQPMALSLYRQFCKHQELETLKDLYNQDDNHQELGSFHIRASYAAEERIEGRVAALQTAADAFYKAKNEFAAKATEDQMRLLRLQRRLEDELGGQFLDLSLHDTVTTLILGGHNKRAEQLARDFRIPDKRLWWLKLTALADLEDWEELEKFSKSKKSPIGYLPFVEICMKQHNKYEAKKYASRVGPEQKVKALLLVGDVAQAADVAIEHRNEAELSLVLSHCTGATDGATADKIQRARAQAQKK

- binding: binds
B4: VPS41 (protein, UniProt P49754 1-854)
chain: MAEAEEQETGSLEESTDESEEEESEEEPKLKYERLSNGVTEILQKDAASCMTVHDKFLALGTHYGKVYLLDVQGNITQKFDVSPVKINQISLDESGEHMGVCSEDGKVQVFGLYSGEEFHETFDCPIKIIAVHPHFVRSSCKQFVTGGKKLLLFERSWMNRWKSAVLHEGEGNIRSVKWRGHLIAWANNMGVKIFDIISKQRITNVPRDDISLRPDMYPCSLCWKDNVTLIIGWGTSVKVCSVKERHASEMRDLPSRYVEIVSQFETEFYISGLAPLCDQLVVLSYVKEISEKTEREYCARPRLDIIQPLSETCEEISSDALTVRGFQENECRDYHLEYSEGESLFYIVSPRDVVVAKERDQDDHIDWLLEKKKYEEALMAAEISQKNIKRHKILDIGLAYINHLVERGDYDIAARKCQKILGKNAALWEYEVYKFKEIGQLKAISPYLPRGDPVLKPLIYEMILHEFLESDYEGFATLIREWPGDLYNNSVIVQAVRDHLKKDSQNKTLLKTLAELYTYDKNYGNALEIYLTLRHKDVFQLIHKHNLFSSIKDKIVLLMDFDSEKAVDMLLDNEDKISIKKVVEELEDRPELQHVYLHKLFKRDHHKGQRYHEKQISLYAEYDRPNLLPFLRDSTHCPLEKALEICQQRNFVEETVYLLSRMGNSRSALKMIMEELHDVDKAIEFAKEQDDGELWEDLILYSIDKPPFITGLLNNIGTHVDPILLIHRIKEGMEIPNLRDSLVKILQDYNLQILLREGCKKILVADSLSLLKKMHRTQMKGVLVDEENICESCLSPILPSDAAKPFSVVVFHCRHMFHKECLPMPSMNSAAQFCNICSAKNRGPGSAILEMKK

- binding: binds
B5: VPS11 (protein, UniProt Q9H270 1-941)
chain: MAAYLQWRRFVFFDKELVKEPLSNDGAAPGATPASGSAASKFLCLPPGITVCDSGRGSLVFGDMEGQIWFLPRSLQLTGFQAYKLRVTHLYQLKQHNILASVGEDEEGINPLVKIWNLEKRDGGNPLCTRIFPAIPGTEPTVVSCLTVHENLNFMAIGFTDGSVTLNKGDITRDRHSKTQILHKGNYPVTGLAFRQAGKTTHLFVVTTENVQSYIVSGKDYPRVELDTHGCGLRCSALSDPSQDLQFIVAGDECVYLYQPDERGPCFAFEGHKLIAHWFRGYLIIVSRDRKVSPKSEFTSRDSQSSDKQILNIYDLCNKFIAYSTVFEDVVDVLAEWGSLYVLTRDGRVHALQEKDTQTKLEMLFKKNLFEMAINLAKSQHLDSDGLAQIFMQYGDHLYSKGNHDGAVQQYIRTIGKLEPSYVIRKFLDAQRIHNLTAYLQTLHRQSLANADHTTLLLNCYTKLKDSSKLEEFIKKKSESEVHFDVETAIKVLRQAGYYSHALYLAENHAHHEWYLKIQLEDIKNYQEALRYIGKLPFEQAESNMKRYGKILMHHIPEQTTQLLKGLCTDYRPSLEGRSDREAPGCRANSEEFIPIFANNPRELKAFLEHMSEVQPDSPQGIYDTLLELRLQNWAHEKDPQVKEKLHAEAISLLKSGRFCDVFDKALVLCQMHDFQDGVLYLYEQGKLFQQIMHYHMQHEQYRQVISVCERHGEQDPSLWEQALSYFARKEEDCKEYVAAVLKHIENKNLMPPLLVVQTLAHNSTATLSVIRDYLVQKLQKQSQQIAQDELRVRRYREETTRIRQEIQELKASPKIFQKTKCSICNSALELPSVHFLCGHSFHQHCFESYSESDADCPTCLPENRKVMDMIRAQEQKRDLHDQFQHQLKCSNDSFSVIADYFGRGVFNKLTLLTDPPTARLTSSLEAGLQRDLLMHSRRGT

- binding: binds
B6: JIP4 (protein, UniProt O60271 1-1321)
chain: MELEDGVVYQEEPGGSGAVMSERVSGLAGSIYREFERLIGRYDEEVVKELMPLVVAVLENLDSVFAQDQEHQVELELLRDDNEQLITQYEREKALRKHAEEKFIEFEDSQEQEKKDLQTRVESLESQTRQLELKAKNYADQISRLEEREAELKKEYNALHQRHTEMIHNYMEHLERTKLHQLSGSDQLESTAHSRIRKERPISLGIFPLPAGDGLLTPDAQKGGETPGSEQWKFQELSQPRSHTSLKVSNSPEPQKAVEQEDELSDVSQGGSKATTPASTANSDVATIPTDTPLKEENEGFVKVTDAPNKSEISKHIEVQVAQETRNVSTGSAENEEKSEVQAIIESTPELDMDKDLSGYKGSSTPTKGIENKAFDRNTESLFEELSSAGSGLIGDVDEGADLLGMGREVENLILENTQLLETKNALNIVKNDLIAKVDELTCEKDVLQGELEAVKQAKLKLEEKNRELEEELRKARAEAEDARQKAKDDDDSDIPTAQRKRFTRVEMARVLMERNQYKERLMELQEAVRWTEMIRASRENPAMQEKKRSSIWQFFSRLFSSSSNTTKKPEPPVNLKYNAPTSHVTPSVKKRSSTLSQLPGDKSKAFDFLSEETEASLASRREQKREQYRQVKAHVQKEDGRVQAFGWSLPQKYKQVTNGQGENKMKNLPVPVYLRPLDEKDTSMKLWCAVGVNLSGGKTRDGGSVVGASVFYKDVAGLDTEGSKQRSASQSSLDKLDQELKEQQKELKNQEELSSLVWICTSTHSATKVLIIDAVQPGNILDSFTVCNSHVLCIASVPGARETDYPAGEDLSESGQVDKASLCGSMTSNSSAETDSLLGGITVVGCSAEGVTGAATSPSTNGASPVMDKPPEMEAENSEVDENVPTAEEATEATEGNAGSAEDTVDISQTGVYTEHVFTDPLGVQIPEDLSPVYQSSNDSDAYKDQISVLPNEQDLVREEAQKMSSLLPTMWLGAQNGCLYVHSSVAQWRKCLHSIKLKDSILSIVHVKGIVLVALADGTLAIFHRGVDGQWDLSNYHLLDLGRPHHSIRCMTVVHDKVWCGYRNKIYVVQPKAMKIEKSFDAHPRKESQVRQLAWVGDGVWVSIRLDSTLRLYHAHTYQHLQDVDIEPYVSKMLGTGKLGFSFVRITALMVSCNRLWVGTGNGVIISIPLTETNKTSGVPGNRPGSVIRVYGDENSDKVTPGTFIPYCSMAHAQLCFHGHRDAVKFFVAVPGQVISPQSSSSGTDLTGDKAGPSAQEPGSQTPLKSMLVISGGEGYIDFRMGDEGGESELLGEDLPLEPSVTKAERSHLIVWQVMYGNE

- binding: binds
B7: VPS39 (protein, UniProt Q96JC1 1-886)
chain: MHDAFEPVPILEKLPLQIDCLAAWEEWLLVGTKQGHLLLYRIRKDVVPADVASPESGSCNRFEVTLEKSNKNFSKKIQQIHVVSQFKILVSLLENNIYVHDLLTFQQITTVSKAKGASLFTCDLQHTETGEEVLRMCVAVKKKLQLYFWKDREFHELQGDFSVPDVPKSMAWCENSICVGFKRDYYLIRVDGKGSIKELFPTGKQLEPLVAPLADGKVAVGQDDLTVVLNEEGICTQKCALNWTDIPVAMEHQPPYIIAVLPRYVEIRTFEPRLLVQSIELQRPRFITSGGSNIIYVASNHFVWRLIPVPMATQIQQLLQDKQFELALQLAEMKDDSDSEKQQQIHHIKNLYAFNLFCQKRFDESMQVFAKLGTDPTHVMGLYPDLLPTDYRKQLQYPNPLPVLSGAELEKAHLALIDYLTQKRSQLVKKLNDSDHQSSTSPLMEGTPTIKSKKKLLQIIDTTLLKCYLHTNVALVAPLLRLENNHCHIEESEHVLKKAHKYSELIILYEKKGLHEKALQVLVDQSKKANSPLKGHERTVQYLQHLGTENLHLIFSYSVWVLRDFPEDGLKIFTEDLPEVESLPRDRVLGFLIENFKGLAIPYLEHIIHVWEETGSRFHNCLIQLYCEKVQGLMKEYLLSFPAGKTPVPAGEEEGELGEYRQKLLMFLEISSYYDPGRLICDFPFDGLLEERALLLGRMGKHEQALFIYVHILKDTRMAEEYCHKHYDRNKDGNKDVYLSLLRMYLSPPSIHCLGPIKLELLEPKANLQAALQVLELHHSKLDTTKALNLLPANTQINDIRIFLEKVLEENAQKKRFNQVLKNLLHAEFLRVQEERILHQQVKCIITEEKVCMVCKKKIGNSAFARYPNGVVVHYFCSKEVNPADT
